# In PubChem BioAssay AID540303 (National Center for Advancing Translational Sciences (NCATS), 2011):
# Out of some 330,000 compounds screened, about 1,000 (0.3%) were called active. The inconclusive results got no clear call from the source; some entries with a clear call stand among them for comparison. Calls follow the shape of the dose curve; as a rule, active = well fitted inhibition curve with a large enough effect; inconclusive = small, poorly fitted or top-dose-only effect; inactive = no such curve, though single readings can be large or run the other way; tested in mouse RAW 264.7 cells. Where the call is inconclusive, the potency comes from a doubtful curve fit.
# Test: qHTS for Inhibitors of Cell Surface uPA Generation; also: nearly all actives have a fitted effect of over 55% in size
# Conditions: cell surface uPA generation assay; series mostly up to 38.3 µM
# How it was run: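 RAW 264.7 cells (4000/well) were plated overnight at 37 C and then given compounds in a 1:5 series (up to 38.3 uM final) plus reagent for 24 h. Intracellular ATP was measured by ATP-Lite luminescence and stays elevated when uPA-dependent LF entry is blocked.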
# Potency is read from the fitted curve at half-maximal effect.
row,SMILES,Potency
1,O=C(CSc1nnc(CNC(=O)c2ccc(F)cc2)o1)Nc1ccc2c(c1)OCCO2,"inconclusive: 2.82 µM [inhibitor, partial curve, poor fit]"
2,COc1ccc(S(=O)(=O)N(C)c2ccc(C(=O)NCc3ccccn3)cc2)cc1OC,"inconclusive: 8.91 µM [inhibitor, partial curve, poor fit]"
3,CC(=O)Nc1ccc(/C=N/Nc2nc3ccccc3[nH]2)cc1,"inconclusive: 12.6 µM [inhibitor, single point]"
4,COc1cc(/C=C2\Oc3ccc(C#Cc4ccc(O)cc4)cc3C2=O)cc(OC)c1,active: 4.47 µM
5,Cc1cccc2cncc(OCc3nnc(SC(F)F)n3C)c12,inactive
6,Cc1cccc(-c2nc(CS(=O)CC(=O)NCc3cccs3)c(C)o2)c1 (stereo unspecified),"inconclusive: 0.0282 µM [inhibitor, full curve, poor fit]"
7,C=CCCC(=O)Nc1nc(C)c(-c2csc(Nc3ccc(Cl)cc3Cl)n2)s1,"inconclusive: 12.6 µM [inhibitor, single point]"
8,Cc1ccc([N+](=O)[O-])cc1NC(=O)Nc1cccc(F)c1,"inconclusive: 7.08 µM [inhibitor, partial curve, poor fit]"
9,NC(=O)CC(NC(=O)c1ccccc1)c1ccc(N2CCC(Br)CC2)c([N+](=O)[O-])c1 (stereo unspecified),inactive
10,C[C@H](CO)N1C[C@H](C)[C@H](CN(C)Cc2ccccc2)Oc2c(NC(=O)Nc3ccc(F)cc3)cccc2C1=O,"inconclusive: 11.2 µM [inhibitor, single point]"
11,COc1ccc(N2C(=O)CC(N3CCN(c4ccccc4)CC3)C2=O)cc1 (stereo unspecified),"inconclusive: 12.6 µM [inhibitor, partial curve]"
12,CC1CC2(NC(=O)NC2=O)C(C)CN1C (stereo unspecified),inactive
13,CCc1nccn1S(=O)(=O)c1cc(OC)ccc1OC,"inconclusive: 3.55 µM [inhibitor, full curve, poor fit]"
14,O=C(Nc1ccc(N2CCCCC2)cc1)c1ccccc1,"inconclusive: 5.62 µM [inhibitor, partial curve]"
15,O=C(c1ccccc1)[C@@H]1[C@@H]2C(=O)N(c3ccc(F)cc3)C(=O)[C@@H]2C2CCCN21 (stereo partly specified),"inconclusive: 6.31 µM [inhibitor, partial curve, poor fit]"
16,COc1ccc(S(=O)(=O)Nc2cccc3c2O[C@H](CN(C)Cc2ccncc2)[C@@H](C)CN([C@H](C)CO)C3=O)cc1,"inconclusive: 7.94 µM [inhibitor, single point]"
17,Nc1ccc(-c2nc3ncccc3o2)c(O)c1,"inconclusive: 10 µM [inhibitor, single point]"
18,O=C(NC(=S)NN1CCCCC1c1cccnc1)c1ccc(Cl)cc1Cl (stereo unspecified),inactive
19,Cc1ccc(-n2nc3c(c2NC(=O)c2ccc(F)c(F)c2)CS(=O)(=O)C3)cc1,"inconclusive: 1 µM [inhibitor, full curve, poor fit]"
20,COc1ccc(S(=O)(=O)N2CCCCCC2)cc1C(=O)N1CCCC(C(F)(F)F)C1 (stereo unspecified),inactive
21,O=C(CSC1=NCCN1)NC12CC3CC(CC(C3)C1)C2,inactive
22,Cc1cc(Cl)ccc1OCC(=O)N(Cc1ccco1)c1c(N)n(Cc2ccccc2)c(=O)[nH]c1=O,"inconclusive: 31.6 µM [inhibitor, partial curve, poor fit]"

row,SMILES,Potency
1,COC(=O)CCc1sc(NC2CCCCC2)nc1-c1ccc(OC)cc1,inactive
2,CC1=CC(C)(C)N(S(=O)(=O)c2ccc(C)cc2)c2cc(C)ccc21,"inconclusive: 0.501 µM [inhibitor, full curve, poor fit]"
3,COc1ccc(NC(=O)COC(=O)CN2C(=O)NC(C)(C)C2=O)cc1,"inconclusive: 1 µM [inhibitor, partial curve, poor fit]"
4,O=[N+]([O-])c1ccccc1Nc1nc(-c2cccnc2)cs1,"inconclusive: 12.6 µM [inhibitor, single point]"
5,O=C(Nc1ccc(-c2nc3cccnc3s2)cc1)c1ccco1,"inconclusive: 5.01 µM [inhibitor, partial curve, poor fit]"
6,O=C(/C=C/c1ccccc1)CC(=O)c1ccccc1O,active: 8.91 µM
7,Cc1ccc(-c2cc(C(=O)N3CCN(C4CCS(=O)(=O)C4)CC3)c3ccccc3n2)cc1 (stereo unspecified),"inconclusive: 3.55 µM [inhibitor, partial curve, poor fit]"
8,COc1cccc(/C=N/NC(=O)CNC(=O)COc2cccc(C)c2)c1O,"inconclusive: 11.2 µM [inhibitor, partial curve, poor fit]"
9,CCc1nc(SCc2ccc(OCC(C)C)cc2)n[nH]1,inactive
10,COc1ccc2[nH]c(CN3CCN(C(C)C)C(CCO)C3)c(C)c2c1 (stereo unspecified),inactive
11,Cc1nn(C2CCS(=O)(=O)C2)c(C)c1CN(C)C(=O)c1cccc(Cl)c1 (stereo unspecified),inactive
12,COc1ccc(C(=O)CCC(=O)N2CCN(c3ccc([N+](=O)[O-])cc3)CC2)cc1,"inconclusive: 0.0032 µM [inhibitor, full curve, poor fit]"
13,O=C(NCc1ccccc1)C1=C[C@@H](c2csc3ccccc23)C[C@@H](OCCCCO)O1,"inconclusive: 28.2 µM [inhibitor, single point]"
14,Cc1ccc(C(=O)N/N=C2\CCCc3ccccc32)c(C)c1,"inconclusive: 25.1 µM [inhibitor, partial curve, poor fit]"
15,COc1ccc(-c2csc3ncn(Cc4ccccc4)c(=O)c23)cc1,"inconclusive: 10 µM [inhibitor, single point]"
16,O=[N+]([O-])c1nn(-c2ccc(Cl)cc2)n(O)c1=NCc1ccncc1,active: 12.6 µM
17,Cn1c(=O)c2c(nc(NCCNC(=O)c3ccco3)n2Cc2ccccc2)n(C)c1=O,inactive
18,CCOC(=O)C(C(C)=O)c1c(Br)c(O)c(O)c2c(C(=O)c3ccc(C)cc3)coc12 (stereo unspecified),"inconclusive: 2.82 µM [inhibitor, full curve]"
19,N#Cc1ccc(C(=O)Nc2nnc(-c3cccs3)o2)cc1,"inconclusive: 7.94 µM [inhibitor, partial curve, poor fit]"
20,Cc1ccc(S(=O)(=O)CCC(=O)Nc2nnc(CC(C)C)s2)cc1,"inconclusive: 11.2 µM [inhibitor, partial curve, poor fit]"
21,COc1ccccc1NS(=O)(=O)c1cccc(C(=O)N2CCCC2)c1,"inconclusive: 3.16 µM [inhibitor, partial curve, poor fit]"
22,CCOC(=O)C(C)On1c(-n2nc(C)cc2C)nc2ccccc2c1=O (stereo unspecified),"inconclusive: 7.94 µM [inhibitor, single point]"

row,SMILES,Potency
1,COc1cc(CNc2ccc3[nH]c(=O)[nH]c3c2)ccc1OCc1ccc(F)cc1,"inconclusive: 25.1 µM [inhibitor, single point]"
2,C/C=C/Cn1c(SCCCc2ccccc2)nc2c1c(=O)[nH]c(=O)n2C,"inconclusive: 12.6 µM [inhibitor, single point]"
3,CCOC(=O)c1c(NC(=O)/C=C/C(=O)O)sc(C)c1-c1ccc(C)c(C)c1,"inconclusive: 12.6 µM [inhibitor, partial curve, poor fit]"
4,CCOc1cc2c3c(c1)C(C)=CC(C)(C)N3C(=O)C2=O,"inconclusive: 0.355 µM [inhibitor, full curve, poor fit]"
5,Fc1ccc(CSc2nc3ccccc3[nH]2)cc1,"inconclusive: 7.94 µM [inhibitor, partial curve, poor fit]"
6,CC(=O)c1c(Cl)nc2ccc(Br)cc2c1-c1ccccc1,"inconclusive: 1.41 µM [inhibitor, partial curve, poor fit]"
7,COc1ccc(CN2CCN(Cc3ccccc3F)CC2)c(OC)c1,inactive
8,Cc1ccc(C2=NN(S(C)(=O)=O)C(c3ccc4nccnc4c3)C2)cc1 (stereo unspecified),inactive
9,Cc1cc(C)n(C(=O)c2c([N+](=O)[O-])c(C)nn2C)n1,inactive
10,Cc1cccc(C)c1N(CC(=O)N1CCN(c2ccccc2F)CC1)S(C)(=O)=O,"inconclusive: 0.447 µM [inhibitor, full curve, poor fit]"
11,COc1c(C(=O)Nc2ccc(Cc3ccncc3)cc2)ccc2ccccc12,"inconclusive: 8.91 µM [inhibitor, partial curve, poor fit]"
12,Cc1ccc(S(=O)(=O)N2CCN(C(=O)CCCN3C(=O)NC4(CCCC4)C3=O)CC2)cc1C,"inconclusive: 0.355 µM [inhibitor, full curve, poor fit]"
13,Fc1ccc(/C=N/NC(=S)Nc2ccc(Cl)cc2)cc1F,inactive
14,COc1cc(OC)c(C2=NOC(C(=O)NCc3ccc4c(c3)OCO4)C2)cc1Cl (stereo unspecified),"inconclusive: 7.94 µM [inhibitor, partial curve, poor fit]"
15,COc1ccc(NC(=O)CN(C)C(=O)Cc2c[nH]c3ccccc23)cc1,"inconclusive: 12.6 µM [inhibitor, single point]"
16,Cc1ccc(S(=O)(=O)Oc2ccccc2/C=C2/SC(=O)NC2=O)cc1,inactive
17,CCN(c1ccccc1)S(=O)(=O)c1ccc(C(=O)NC2CCN(Cc3ccccc3)CC2)cc1,inactive
18,O=C1C2C(C(=O)N1Cc1cccnc1)C1C=CC2C12CC2 (stereo unspecified),inactive
19,Oc1c(C(c2ccc(Cl)cc2)N2CCCC2)cc(Cl)c2cccnc12 (stereo unspecified),"inconclusive: 10 µM [inhibitor, single point]"
20,Cc1ccc(C(=O)N/C(=C\c2ccco2)C(=O)NCCCn2ccnc2)cc1C,inactive
21,CCN1CCN(Cc2ccc(NC(=O)Nc3ccccc3)cc2)CC1,"inconclusive: 14.1 µM [inhibitor, partial curve, poor fit]"
22,CCOc1ccccc1OCC(=O)NCc1ccco1,inactive

# 3 entries from above, tab-delimited:
row	SMILES	Potency
2	CC1=CC(C)(C)N(S(=O)(=O)c2ccc(C)cc2)c2cc(C)ccc21	inconclusive: 0.501 µM [inhibitor, full curve, poor fit]
3	COc1ccc(NC(=O)COC(=O)CN2C(=O)NC(C)(C)C2=O)cc1	inconclusive: 1 µM [inhibitor, partial curve, poor fit]
4	O=[N+]([O-])c1ccccc1Nc1nc(-c2cccnc2)cs1	inconclusive: 12.6 µM [inhibitor, single point]
